{
  "source": "PubChem BioAssay AID2685",
  "about": "(National Center for Advancing Translational Sciences (NCATS), 2010)",
  "note": "Screen size: about 320,000 compounds; about 2,100 (0.66%) were called active. The inconclusive results got no clear call from the source; some entries with a clear call stand among them for comparison. Calls come from the whole dose curve; as a rule, active = well fitted inhibition curve with a large enough effect in the signal ratio, with a control signal flat (not every such curve was filed as active); inconclusive = small, poorly fitted or top-dose-only effect, or effect the other way, or a change in a side signal; inactive = flat fitted curve, though single readings scatter; the % refers to the signal ratio. Where the call is inconclusive, the potency comes from a doubtful curve fit. % is set by controls: 0 for no effect and ±100 for the full control effect; potency is the fitted concentration of half-maximal effect.",
  "data": [
    {"assay": "qHTS Assay for Lipid Storage Modulators in Drosophila S3 Cells", "details": "BODIPY lipid droplet fluorescence, 18-24 h, cells fed with added oleic acid; lipid storage change, negative = inhibition: at 46.1 µM (top of the series) unless noted", "summary_of_the_method": "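Drosophila S3 cells loaded with oleic acid (400 uM, as added) and compounds at several concentrations; lipid droplets imaged by 488-nm laser-scanning cytometry, 500–530 nm intensity and object ratio to cell channel. Percent activity normalized to 20 uM Triacsin C.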", "values": [
      {"smiles": "COc1ccc(C(C)C)cc1S(=O)(=O)N1CCN(C)CC1", "lipid storage change, negative = inhibition": "inconclusive: -25.9%"},
      {"smiles": "Cc1[nH]n2cnnc2c(=O)c1Br", "lipid storage change, negative = inhibition": "inconclusive: 5.31%"},
      {"smiles": "Fc1ccccc1N1CCN(c2nnnn2-c2ccccc2)CC1", "Potency": "inconclusive: 6.51 µM [activator, single point]"},
      {"smiles": "CCOc1ccc(N(CC(=O)Nc2ccc(C)c(F)c2)C2=NC3CS(=O)(=O)CC3S2)cc1", "note": "(configuration not stated)", "lipid storage change, negative = inhibition": "inconclusive: 80.1%"},
      {"smiles": "CCC(=O)Nc1ccc(C(=O)COC(=O)CCN2C(=O)C3CC=CCC3C2=O)cc1", "note": "(configuration not stated)", "lipid storage change, negative = inhibition": "inconclusive: -100%"},
      {"smiles": "CCCOCC1CC2(SC(=Nc3ccc(C)cc3)NC2=O)C(=O)O1", "note": "(configuration not stated)", "Potency": "inconclusive: 2.31 µM [falling, partial curve, poor fit]"},
      {"smiles": "CCOC(=O)Cc1nnc(-c2ccccc2)o1", "lipid storage change, negative = inhibition": "inconclusive: 32.5%"},
      {"smiles": "CC(=O)c1ccccc1NC(=O)COC(=O)Cc1cccc(C(F)(F)F)c1", "lipid storage change, negative = inhibition": "inconclusive: -2.65%"},
      {"smiles": "O=C(OCn1nnc2ccccc2c1=O)c1cccc(S(=O)(=O)N2CCOCC2)c1", "lipid storage change, negative = inhibition": "inconclusive: 10.6%"},
      {"smiles": "CCc1cc(=O)oc2cc(OC(C)C(=O)NCC3CCC(C(=O)O)CC3)c(Cl)cc12", "note": "(configuration not stated)", "lipid storage change, negative = inhibition": "inconclusive: -54.4%"},
      {"smiles": "CN(c1cc(=O)n2ccccc2n1)C1CCCCC1", "lipid storage change, negative = inhibition": "inconclusive: 2.12%"},
      {"smiles": "O=C1Nc2cc(C(=O)NCC3CCCO3)ccc2S/C1=C/c1ccccc1F", "note": "(configuration not stated)", "lipid storage change, negative = inhibition": "inconclusive: -30%"},
      {"smiles": "CC1CCCCC12NC(=O)N(CC(=O)N1CCN(c3ncccn3)CC1)C2=O", "note": "(configuration not stated)", "lipid storage change, negative = inhibition": "inconclusive: -21.4%"},
      {"smiles": "CCCCNC(=O)CC1SC(=NCC)N(CC)C1=O", "note": "(configuration not stated)", "Potency": "inconclusive: 2.91 µM [activator, single point]"},
      {"smiles": "CC(=O)Nc1ccc(SC(C)C(=O)NC(N)=O)cc1", "note": "(configuration not stated)", "Potency": "active: 29.1 µM"},
      {"smiles": "c1cc2c3c(cccc3c1)NC1(CCCCCC1)N2", "lipid storage change, negative = inhibition": "inconclusive: 1.54%"},
      {"smiles": "Nc1c(C(=O)Nc2cccc(C(=O)O)c2)sc2nc3c(cc12)CCCC3", "Potency": "inconclusive: 6.51 µM [activator, single point]"},
      {"smiles": "Fc1ccc(/C=N/NC(=S)Nc2cccnc2)cc1", "lipid storage change, negative = inhibition": "inconclusive: -24.9%"},
      {"smiles": "COc1ccc(NC(=O)Cc2nnc(SCC(=O)Nc3ccccc3)n2C)cc1", "Potency": "inconclusive: 11.6 µM [activator, single point]"},
      {"smiles": "O=C(/C=C/c1ccco1)NC1CCCC1", "Potency": "inconclusive: 0.82 µM [falling, full curve]"},
      {"smiles": "CCc1ccccc1-n1cnc2cc(C(=O)O)ccc21", "lipid storage change, negative = inhibition": "inconclusive: -35.4% [cytotoxic] [at 0.0737 µM]"},
      {"smiles": "COc1cc2c(cc1OC)C(C)N(S(=O)(=O)c1cnc(Cl)c(Cl)c1)CC2", "note": "(configuration not stated)", "Potency": "inconclusive: 6.51 µM [falling, single point]"}
    ]}
  ]
}
